Patent publication US11771634B2, “Antimicrobial antifungal composition” (GODREJ INDUSTRIES LIMITED, priority 2021, dated 2023)
Some results were stated once for a whole list of compounds, not compound by compound. For at least one compound, name, drawing or mass did not settle the structure.

System: M. furfur
Experiment: Time kill method (ASTM E 2315-16)
Type: cell-based, Malassezia furfur
Conditions: in 1 minute and 5 minutes
From the text: Time Kill Method (at 1% AI) Against Test Organism M. furfur.

Structure (SMILES): C=CCCCCCCCCC(=O)NCCC[N+](C)(C)CC(O)COP(=O)([O-])OCC(O)C[N+](C)(C)CCCNC(=O)CCCCCCCCC=C.[Cl-] (centres unmarked) [UDAP PB, Undecylenamidopropyl PG-Dimonium Chloride Phosphate]
- % reduction of Malassezia furfur: > 99.9%
- log reduction of Malassezia furfur: > 4 log
